Test results reported in publication PMC4370678.
Results are given in words; binding and its absence hold for the method and conditions named. Some binding calls cover weakened binding; strength is not graded here.

What was measured:
[1] = molecular target: pSos-AIPL1 (full-length wild type human AIPL1) (human) (UniProt Q9NZN9); experiment: two-hybrid; CytoTrapXR screen of a bovine retinal cDNA library in pMyr (about 1 X 10^6 colonies) with pSos-AIPL1 as bait in S. cerevisiae cdc25Hα; growth at 37°C on gal(-L-U)
[2] = molecular target: pSos-AIPL1 (full-length wild type human AIPL1) (human) (UniProt Q9NZN9); experiment: two-hybrid; directed 1:1 CytoTrapXR two-hybrid in cdc25Hα yeast: pSos bait and pMyr prey co-transformed, serial dilutions grown at 24°C and 37°C
pSos-AIPL1(H82Y) (human) = pSos-AIPL1(H82Y) (human) (UniProt Q9NZN9); experiment: as above
[3] = molecular target: pSos-AIPL1(G262S) (human) (UniProt Q9NZN9); experiment: as above
[4] = molecular target: pSos-AIPL1(R302L) (human) (UniProt Q9NZN9); experiment: as above

Measured: binding

B1: pMyr-EB1(109–268) (domain or fragment, UniProt Q3ZBD9 109-268)
chain: QWFKKFFDANYDGKEYDPVAARQGQETAMAPSLVAPALNKPKKPLSSSSAAPQRPITTHRTTATPKAGPGVVRKNPGVGNGDDEAAELMQQVNVLKLTVEDLEKERDFYFGKLRNIELICQENEGENNPVLQRIVDILYATDEGFVIPDEGGPQEEQEEY
binds: all assays above
